“And” between values parts separate entries of the source, which are not always exact repeats. Equal values may be shown once. Out of some 400,000 compounds screened, about 3,700 (0.93%) were called active. Inconclusive results, whose numbers are uncertain, are shown with a selection of clear calls. Calls follow the shape of the dose curve; as a rule, active = well fitted inhibition curve with a large enough effect; inconclusive = small, poorly fitted or top-dose-only effect, or another doubt; inactive = no such curve, though single readings can be large or run the other way. Potencies beside an inconclusive call are fits to weak or partial responses and may not hold up.
These molecules were tested against Vitamin D3 receptor (Homo sapiens) (UniProt P11473) (assay: Inhibitors of the vitamin D receptor (VDR): qHTS). Details: VDR-SRC2-3 peptide fluorescence polarization, 2 h; max response, negative = inhibition: hits give low values.
How it was run: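 Fluorescence polarization assay measuring small-molecule disruption of VDR binding to the coregulator peptide SRC2-3. Compounds were pin-transferred (23 nl) into the reagent mix and incubated 2 h at room temperature before reading.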
% is scaled to controls: 0 for no effect and ±100 for the full control effect; potency is read from the fitted curve at half-maximal effect.

Chains of the proteins cited; added tags and fusions are not shown. Lines headed by an entry give the natural chain unless they say otherwise; changes in a name come on top.
UniProt P11473: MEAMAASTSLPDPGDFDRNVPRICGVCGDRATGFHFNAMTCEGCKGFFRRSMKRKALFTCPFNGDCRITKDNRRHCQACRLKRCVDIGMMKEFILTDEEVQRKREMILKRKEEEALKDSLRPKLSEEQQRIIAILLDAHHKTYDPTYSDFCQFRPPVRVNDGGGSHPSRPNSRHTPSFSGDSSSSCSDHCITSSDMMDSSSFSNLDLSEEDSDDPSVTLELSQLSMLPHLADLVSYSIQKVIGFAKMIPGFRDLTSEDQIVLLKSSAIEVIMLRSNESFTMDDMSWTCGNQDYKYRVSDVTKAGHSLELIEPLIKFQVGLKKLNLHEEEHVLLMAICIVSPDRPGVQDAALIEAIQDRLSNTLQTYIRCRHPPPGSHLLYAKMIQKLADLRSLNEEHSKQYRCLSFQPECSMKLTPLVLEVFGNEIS

SMILES	Potency	max response, negative = inhibition
COc1ccc(NC(=O)CN(C)C(=O)c2cn(-c3ccccc3)nc2-c2cccs2)cc1	inconclusive: 89.1 µM [inhibitor, partial curve, poor fit]	–
COc1ccc(CCN2C(=O)c3cccc4cccc(c34)C2=O)cc1OC	inconclusive: 89.1 µM [inhibitor, single point]	–
COc1ccc(C2/C=C\CN(C(=O)CC(C)(C)C)C(C)C(=O)N2Cc2ccc(F)cc2)cc1 (configuration not stated)	inconclusive: 89.1 µM [inhibitor, partial curve, poor fit]	–
CCOC(=O)C1CCCN(C(=O)Cn2sc3nc(C)cc(C)c3c2=O)C1 (configuration not stated)	inconclusive: 5.01 µM [inhibitor, full curve, poor fit]	–
CSc1nnc2c3c4c(sc3nc(-n3nc(C)cc3C)n12)COC(C)(C)C4	inconclusive: 1.41 µM [inhibitor, full curve, poor fit]	–
CCN(CC)C(=O)CCc1nnc(Cc2cccc(C(F)(F)F)c2)o1	inconclusive: 28.2 µM [inhibitor, partial curve, poor fit]	–
O=C(CSc1nc2cc(S(=O)(=O)N3CCOCC3)ccc2o1)Nc1c(F)cccc1F	active: 17.8 µM	–
CCN(CC)S(=O)(=O)c1cccc(NC(=O)COC(=O)c2cc(=O)c3ccccc3o2)c1	inconclusive: 56.2 µM [inhibitor, partial curve, poor fit]	–
CC1CCN(C(=O)C(C)NCc2ccc(F)cc2)CC1 (configuration not stated)	inconclusive: 39.8 µM [inhibitor, single point]	–
CCN1CCN(C(=O)c2ccc(S(=O)(=O)Nc3ccccc3)cc2)CC1	–	inactive: 0.227%
CCN(c1ccccc1)S(=O)(=O)c1ccc(Cl)c(NC(=O)CSc2ncn[nH]2)c1	inconclusive: 79.4 µM [inhibitor, partial curve, poor fit]	–
COc1ccc(Cc2nnc(NS(=O)(=O)c3ccccc3)s2)cc1	–	inactive: 5.74%
CN(C)c1cccc2c(C=C(C#N)C#N)ccc(N(C)C)c12	–	inactive: -13.3%
Cc1ccc(CN(C)C(=O)c2cccc(S(=O)(=O)N3CCc4ccccc4C3)c2)o1	–	inactive: -27.9%
COCCC(=O)N1CCC(n2nccc2NC(=O)c2ccccc2C)CC1	inconclusive: 39.8 µM [inhibitor, single point]	–
Cc1[nH]n(-c2ncc(-c3ccccc3)s2)c(=O)c1C(c1ccc(Br)cc1)C(C#N)C#N (configuration not stated)	active: 35.5 µM	–
Cc1cc([N+](=O)[O-])c(C)cc1-c1ccc(/C=N/NC(=O)c2cccnc2)o1	inconclusive: 56.2 µM [inhibitor, partial curve, poor fit]	–
O=C(NP(=O)(N1CCOCC1)N1CCOCC1)C1=C(N2CCOCC2)/C(=C\c2ccccc2)CC1	inconclusive: 79.4 µM [inhibitor, single point]	–
CCC1=NN2C(=N)/C(=C/c3c(C)nn(-c4ccccc4)c3Cl)C(=O)N=C2S1	inconclusive: 70.8 µM [inhibitor, single point]	–
Cc1cc(C)n2nc(SCc3c(F)cccc3Cl)nc2n1	inconclusive: 89.1 µM [inhibitor, single point]	–
N#C/C(=C\c1ccc(O)c([N+](=O)[O-])c1)c1nc2ccccc2s1	inconclusive: 89.1 µM [inhibitor, partial curve, poor fit]	–

Copied from the entries so far for reference:
SMILES	Potency	max response, negative = inhibition
CCN1CCN(C(=O)c2ccc(S(=O)(=O)Nc3ccccc3)cc2)CC1	–	inactive: 0.227%
CCN(c1ccccc1)S(=O)(=O)c1ccc(Cl)c(NC(=O)CSc2ncn[nH]2)c1	inconclusive: 79.4 µM [inhibitor, partial curve, poor fit]	–
COc1ccc(Cc2nnc(NS(=O)(=O)c3ccccc3)s2)cc1	–	inactive: 5.74%
CN(C)c1cccc2c(C=C(C#N)C#N)ccc(N(C)C)c12	–	inactive: -13.3%

Additional structures

SMILES	Potency	max response, negative = inhibition
CCOc1c(O)ccc(/C=C2\SC(=S)NC2=O)c1[N+](=O)[O-]	inconclusive: 56.2 µM [inhibitor, partial curve, poor fit]	–
N#CC(C#N)=C1C=C2C=C(N3CCOCC3)CCC2CC1 (configuration not stated)	active: 70.8 µM	–
C=C1c2cccc(OC)c2O[C@H](C(=O)OCC)[C@@H]1CCCCCC	inconclusive: 63.1 µM [inhibitor, full curve] and inconclusive: 79.4 µM [inhibitor, partial curve]	–
CCCN(CC(=O)Nc1ccccc1OC)C(=O)C1=COCCO1	inconclusive: 100 µM [inhibitor, single point]	–
Cc1nc2cc(NCc3ccccc3O)ccc2n1Cc1ccccc1	inconclusive: 79.4 µM [inhibitor, partial curve, poor fit]	–
CC(C)Oc1ccc(C(=O)CCN2CCCCC2)cc1	inconclusive: 56.2 µM [inhibitor, partial curve, poor fit]	–
CNc1cccccc1=S	inconclusive: 50.1 µM [inhibitor, partial curve, poor fit]	–
COCCCNc1oc(-c2ccccc2F)nc1C#N	inconclusive: 25.1 µM [inhibitor, partial curve, poor fit]	–
COc1cc(C)c(Cl)cc1S(=O)(=O)N1CCSC1	inconclusive: 89.1 µM [inhibitor, single point]	–
CCC(C)C(NC(=O)C1CCC(C)CC1)C(=O)Nc1ccc(OC)cc1 (configuration not stated)	inconclusive: 89.1 µM [inhibitor, single point]	–
O=C(NCCNc1ccnc2cc(Cl)ccc12)c1ccccc1F	inconclusive: 6.31 µM [inhibitor, full curve]	–
CCCCn1nc(C(=O)Oc2ccc3c(C)cc(=O)oc3c2)c2ccccc2c1=O	inconclusive: 56.2 µM [inhibitor, single point]	–
CCc1ccc(C(=O)NNc2ccc(C)c(Cl)c2)cc1	inconclusive: 89.1 µM [inhibitor, single point]	–
Cc1ccc(CNC(=O)c2ccccc2NC(=O)c2nsc3ccccc23)cc1	–	inactive: 16.9%
Cc1ccc(Nc2nc3ccccc3o2)cc1F	inconclusive: 28.2 µM [inhibitor, partial curve, poor fit]	–
CC(C)(C)NC(=O)CSc1ncnc2c1nnn2Cc1ccccc1Cl	inconclusive: 0.708 µM [inhibitor, full curve, poor fit]	–
Cc1cccc2sc(N(Cc3cccnc3)C(=O)C3COc4ccccc4O3)nc12 (configuration not stated)	–	inactive: 20.1%
CCOc1cccc(CNc2ccc(O)cc2)c1OCc1ccc(Cl)cc1	inconclusive: 56.2 µM [inhibitor, partial curve, poor fit]	–
O=C(COc1ccccc1)NC(NC(=S)Nc1ccccc1C(=O)O)C(Cl)(Cl)Cl (configuration not stated)	inconclusive: 89.1 µM [inhibitor, single point]	–
COc1ccc(/C(O)=C2\C(=O)C(=O)N(c3cc(C)on3)C2c2ccc(OC)c(OC)c2)cc1OC (configuration not stated)	inconclusive: 8.91 µM [inhibitor, full curve, poor fit]	–

SMILES	Potency	max response, negative = inhibition
O=C1C(=O)c2c(ccc3ccccc23)-c2ccccc21	inconclusive: 7.08 µM [inhibitor, full curve, poor fit]	–
O=C(c1ccccc1)[C@@H]1[C@@H](C(=O)c2ccc(F)cc2)[C@@]2(C(=O)Nc3ccccc32)[C@H]2c3ccccc3C=CN12	inconclusive: 100 µM [inhibitor, single point]	–
CC(C)(C)c1ccc(C(=O)N/N=C/c2ccc(OCCCF)cc2)cc1	inconclusive: 89.1 µM [inhibitor, partial curve, poor fit]	–
Cc1sc2ncnc(N3CCC(C(=O)NNC(=O)c4ccc(Cl)cc4)CC3)c2c1C	inconclusive: 79.4 µM [inhibitor, partial curve, poor fit]	–
CNC(=O)c1c(NC(=O)c2ccc(S(=O)(=O)N(C)c3ccccc3)cc2)sc2c1CCN(C(C)C)C2	inconclusive: 20 µM [inhibitor, full curve, poor fit]	–
Cc1cccc(CC2S/C(=N/c3cccc(C)n3)NC2=O)c1 (configuration not stated)	–	inactive: 0.537%
Cc1cc(=O)oc2cc(OCC(=O)Nc3c(Cl)cccc3C(F)(F)F)ccc12	–	inactive: -9.04%
COc1ccc(N2C(=O)c3cc4ccccc4cc3C2=O)cc1	inconclusive: 89.1 µM [inhibitor, partial curve]	–
CCOc1ccc(/C=N/N(C)c2ccccc2)cc1OC	–	inactive: -5.7%
Cc1ccc(N(C(=O)C(F)(F)F)C(C(=O)NC2CCCCC2)c2ccncc2)cc1C (configuration not stated)	inconclusive: 39.8 µM [inhibitor, single point]	–
Cc1cc(C(=O)OCC(=O)NC(C)C)c2ccccc2n1	inconclusive: 28.2 µM [inhibitor, partial curve, poor fit]	–
CCOc1ccc(CNCc2c(C(=O)O)n(Cc3ccccc3C)c3cc(OC)ccc23)cc1OC	–	inactive: 15.3%
Cc1c(C)n(C)c2ccc(C(=O)NCCc3ccco3)cc12	–	inactive: -26.1%
CNC(=O)C(N)CSC(C)C1=C(C)c2cc3[n-]c(cc4nc(cc5[n-]c(cc1n2)c(C)c5CCC(=O)O)C(CCC(=O)O)=C4C)c(C)c3C(C)SCC(N)C(=O)NC.[Fe+2] (configuration not stated)	–	inactive: 1.1%
Cc1cccc(CN2CCN(C(c3ccccc3)c3ccc(Cl)cc3)CC2)c1 (configuration not stated)	inconclusive: 89.1 µM [inhibitor, single point]	–
COc1ccc(NC(=O)c2cccnc2C(=O)O)c(OC)c1	inconclusive: 28.2 µM [inhibitor, partial curve, poor fit]	–
CN(CC(=O)NCCc1ccc(S(N)(=O)=O)cc1)Cc1ccc(Cl)cc1Cl	–	inactive: -23.7%
CCCCC1CCC(C(=O)Nc2ccc(N3CCOCC3)cc2N2CCOCC2)CC1 (configuration not stated)	–	inactive: 18.5%
CCCOC(=O)c1c(NC(=O)C2C3C=CC(C3)C2C(=O)O)sc2c1CCC(C)C2 (configuration not stated)	inconclusive: 28.2 µM [inhibitor, partial curve, poor fit]	–
CCCOc1ccc(C2=CSC3=NCCN23)cc1[N+](=O)[O-]	inconclusive: 28.2 µM [inhibitor, single point]	–

Reference: PubChem BioAssay AID504847 (National Center for Advancing Translational Sciences (NCATS), 2011)
